{"source": "patent US7662782B2", "about": "(Action Pharma A/S, priority 1998, dated 2010)", "note": "For some of these results: Strings that start with PEPTIDE1 are HELM notation: dots part the residues, brackets hold end groups and non-standard residues. Ends that are not written are not given here.", "data": [{"experiment": "general procedure: peptide synthesis; Fmoc-PAL-PEG-PS; Fmoc-amino acid OPfp esters with HOAt; HATU; PyAOP or TFFH for N-methyl residues", "conditions": "whole synthesis, scale 0.02 mmole, trifluoroacetate salt", "units": {"crude mass": "mg", "isolated mass": "mg", "isolated yield": "%"}, "values": [{"substance": "L-seryl-L-seryl-L-Isoleucyl-L-isoleucyl-L-seryl -L-histidyl-L-phenylalanyl-L-arginyl-L-tryptophanyl-glycyl-L-lysyl-L-prolyl-L-valinamide", "crude mass": 31, "isolated mass": 13.2, "isolated yield": 33}]}, {"experiment": "general procedure: peptide synthesis; Fmoc-PAL-PEG-PS, capacity 0.2 mmole/g; Fmoc-amino acid OPfp esters with HOAt; HATU; PyAOP or TFFH for N-methyl residues", "conditions": "whole synthesis, scale of the general procedure 0.02 mmole (100 mg resin), tetrafluoroacetate", "units": {"isolated yield": "%"}, "values": [{"substance": "PEPTIDE1{S.S.I.I.S.H.[dF].R.W.G.K.P.V.[am]}$$$$V2.0", "isolated yield": 36}]}, {"experiment": "general procedure: peptide synthesis; Fmoc-PAL-PEG-PS, capacity 0.2 mmole/g; Fmoc-amino acid OPfp esters with HOAt; HATU; PyAOP or TFFH for N-methyl residues", "conditions": "whole synthesis, scale of the general procedure 0.02 mmole (100 mg resin), tetratrifluoroacetate", "units": {"isolated yield": "%"}, "values": [{"substance": "Ac-Ser-Ser-Ile-lle-Ser-His-Phe-Arg-Trp-Gly-Lys-Pro-Val-NH2", "isolated yield": 49}, {"substance": "NMeSer-Ser-Ile-lle-Ser-His-Phe-Arg-Trp-Gly-Lys-Pro-Val-NH2", "isolated yield": 47}, {"substance": "SSIVSHFRWGKPV-NH2", "isolated yield": 69}, {"substance": "SSVISHFRWGKPV-NH2", "isolated yield": 42}, {"substance": "Ser-Ser-Ile-lle-Ser-His-NMedPhe-Arg-Trp-Gly-Lys-Pro-Val-NH2", "isolated yield": 40}, {"substance": "Ser-Ser-Ile-lle-Ser-His-Phe-Arg-Trp-Gly-Lys-Pro-NMeVal-NH2", "isolated yield": 2.5}, {"substance": "Ser-Ser-Ile-lle-Ser-His-Phe-Arg-Trp-Gly-Lys-Pro-Val-Tyr-NH2", "isolated yield": 28}, {"substance": "Ser-Thr-Ile-lle-Ser-His-Phe-Arg-Trp-Gly-Lys-Pro-Val-NH2", "isolated yield": 49}, {"substance": "Thr-Ser-Ile-lle-Ser-His-Phe-Arg-Trp-Gly-Lys-Pro-Val-NH2", "isolated yield": 52}, {"substance": "YSIISHFRGKPV-NH2", "isolated yield": 34}, {"substance": "YSSIISHFRWGKPV-NH2", "isolated yield": 33}, {"substance": "dSer-Ser-Ile-lle-Ser-His-Phe-Arg-Trp-Gly-Lys-Pro-Val-NH2", "isolated yield": 44}]}]}
